# According to the supplement of paper PMC8728848:
# Some of the results follow.
# Key:
# Test in all cases: glycan array binding signal (z-score within array); higher = stronger binding
# Details in all cases: glycan notation: IUPAC condensed, linker removed
# [1] = molecular target: Neu5Ac(a2-6)Gal(b1-3)GlcNAc(b1-3)[Gal(b1-4)GlcNAc(b1-6)]Gal(b1-4)Glc
# Procedure, shortened: (§1)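 Glycan array binding is given as a within-array Z-score, which can be read as non-binding when negative. The arrays, 3228 of them, came from the Consortium for Functional Glycomics database and were retained only where the protein sequence was available. Z-scores were averaged across arrays of the same protein sequence at different concentrations or buffers and across linkers.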
# Neu5Ac(a2-6)Gal(b1-4)Glc = molecular target: Neu5Ac(a2-6)Gal(b1-4)Glc
# Procedure, shortened: as §1
# [2] = molecular target: Neu5Ac(a2-6)Gal(b1-4)GlcNAc
# Procedure, shortened: as §1
# [3] = molecular target: Neu5Ac(a2-6)Gal(b1-4)GlcNAc(b1-2)Man
# Procedure, shortened: as §1
# [4] = molecular target: Neu5Ac(a2-6)Gal(b1-4)GlcNAc(b1-2)Man(a1-3)Man(b1-4)GlcNAc(b1-4)GlcNAc
# Procedure, shortened: as §1
# [5] = molecular target: Neu5Ac(a2-6)Gal(b1-4)GlcNAc(b1-2)Man(a1-3)[Gal(b1-4)GlcNAc(b1-2)Man(a1-6)]Man(b1-4)GlcNAc(b1-4)GlcNAc
# Procedure, shortened: as §1
# [6] = molecular target: Neu5Ac(a2-6)Gal(b1-4)GlcNAc(b1-2)Man(a1-3)[GlcNAc(b1-2)Man(a1-6)]Man(b1-4)GlcNAc(b1-4)GlcNAc
# Procedure, shortened: as §1
# [7] = molecular target: Neu5Ac(a2-6)Gal(b1-4)GlcNAc(b1-2)Man(a1-3)[GlcNAc(b1-4)][Neu5Ac(a2-6)Gal(b1-4)GlcNAc(b1-2)Man(a1-6)]Man(b1-4)GlcNAc(b1-4)GlcNAc
# Procedure, shortened: as §1
# [8] = molecular target: Neu5Ac(a2-6)Gal(b1-4)GlcNAc(b1-2)Man(a1-3)[Man(a1-6)]Man(b1-4)GlcNAc(b1-4)GlcNAc
# Procedure, shortened: as §1
# [9] = molecular target: Neu5Ac(a2-6)Gal(b1-4)GlcNAc(b1-2)Man(a1-3)[Neu5Ac(a2-3)Gal(b1-4)GlcNAc(b1-2)Man(a1-6)]Man(b1-4)GlcNAc(b1-4)GlcNAc
# Procedure, shortened: as §1
# [10] = molecular target: Neu5Ac(a2-6)Gal(b1-4)GlcNAc(b1-2)Man(a1-3)[Neu5Ac(a2-6)Gal(b1-4)GlcNAc(b1-2)Man(a1-6)]Man(b1-4)GlcNAc(b1-4)GlcNAc
# Procedure, shortened: as §1
# [11] = molecular target: Neu5Ac(a2-6)Gal(b1-4)GlcNAc(b1-2)Man(a1-3)[Neu5Ac(a2-6)Gal(b1-4)GlcNAc(b1-2)Man(a1-6)]Man(b1-4)GlcNAc(b1-4)[Fuc(a1-6)]GlcNAc
# Procedure, shortened: as §1
# [12] = molecular target: Neu5Ac(a2-6)Gal(b1-4)GlcNAc(b1-2)Man(a1-6)Man(b1-4)GlcNAc(b1-4)GlcNAc
# Procedure, shortened: as §1
# [13] = molecular target: Neu5Ac(a2-6)Gal(b1-4)GlcNAc(b1-2)Man(a1-6)[Gal(b1-4)GlcNAc(b1-2)Man(a1-3)]Man(b1-4)GlcNAc(b1-4)GlcNAc
# Procedure, shortened: as §1
# [14] = molecular target: Neu5Ac(a2-6)Gal(b1-4)GlcNAc(b1-2)Man(a1-6)[GlcNAc(b1-2)Man(a1-3)]Man(b1-4)GlcNAc(b1-4)GlcNAc
# Procedure, shortened: as §1
# [15] = molecular target: Neu5Ac(a2-6)Gal(b1-4)GlcNAc(b1-2)Man(a1-6)[Man(a1-3)]Man(b1-4)GlcNAc(b1-4)GlcNAc
# Procedure, shortened: as §1
# [16] = molecular target: Neu5Ac(a2-6)Gal(b1-4)GlcNAc(b1-2)[Neu5Ac(a2-6)Gal(b1-4)GlcNAc(b1-4)]Man(a1-3)[GlcNAc(b1-4)][Neu5Ac(a2-6)Gal(b1-4)GlcNAc(b1-2)[Neu5Ac(a2-6)Gal(b1-4)GlcNAc(b1-6)]Man(a1-6)]Man(b1-4)GlcNAc(b1-4)GlcNAc
# Procedure, shortened: as §1
# [17] = molecular target: Neu5Ac(a2-6)Gal(b1-4)GlcNAc(b1-2)[Neu5Ac(a2-6)Gal(b1-4)GlcNAc(b1-4)]Man(a1-3)[GlcNAc(b1-4)][Neu5Ac(a2-6)Gal(b1-4)GlcNAc(b1-4)Man(a1-6)]Man(b1-4)GlcNAc(b1-4)GlcNAc
# Procedure, shortened: as §1
# [18] = molecular target: Neu5Ac(a2-6)Gal(b1-4)GlcNAc(b1-2)[Neu5Ac(a2-6)Gal(b1-4)GlcNAc(b1-6)]Man(a1-6)[Neu5Ac(a2-6)Gal(b1-4)GlcNAc(b1-2)Man(a1-3)][GlcNAc(b1-4)]Man(b1-4)GlcNAc(b1-4)GlcNAc
# Procedure, shortened: as §1
# [19] = molecular target: Neu5Ac(a2-6)Gal(b1-4)GlcNAc(b1-3)Gal(b1-3)GlcNAc
# Procedure, shortened: as §1
# [20] = molecular target: Neu5Ac(a2-6)Gal(b1-4)GlcNAc(b1-3)Gal(b1-4)GlcNAc
# Procedure, shortened: as §1
# [21] = molecular target: Neu5Ac(a2-6)Gal(b1-4)GlcNAc(b1-3)Gal(b1-4)GlcNAc(b1-2)Man(a1-3)[Neu5Ac(a2-6)Gal(b1-4)GlcNAc(b1-3)Gal(b1-4)GlcNAc(b1-2)Man(a1-6)]GalNAc
# Procedure, shortened: as §1
# [22] = molecular target: Neu5Ac(a2-6)Gal(b1-4)GlcNAc(b1-3)Gal(b1-4)GlcNAc(b1-3)Gal(b1-4)GlcNAc
# Procedure, shortened: as §1
# [23] = molecular target: Neu5Ac(a2-6)Gal(b1-4)GlcNAc(b1-3)Gal(b1-4)GlcNAc(b1-3)Gal(b1-4)GlcNAc(b1-2)Man(a1-3)[Neu5Ac(a2-6)Gal(b1-4)GlcNAc(b1-3)Gal(b1-4)GlcNAc(b1-3)Gal(b1-4)GlcNAc(b1-2)Man(a1-6)]GalNAc
# Procedure, shortened: as §1
# [24] = molecular target: Neu5Ac(a2-6)Gal(b1-4)GlcNAc(b1-3)Gal(b1-4)GlcNAc(b1-3)GalNAc
# Procedure, shortened: as §1
# [25] = molecular target: Neu5Ac(a2-6)Gal(b1-4)GlcNAc(b1-3)Gal(b1-4)GlcNAc(b1-3)[Neu5Ac(a2-6)Gal(b1-4)GlcNAc(b1-3)Gal(b1-4)GlcNAc(b1-6)]GalNAc
# Procedure, shortened: as §1
# [26] = molecular target: Neu5Ac(a2-6)Gal(b1-4)GlcNAc(b1-3)Gal(b1-4)GlcNAc(b1-6)[Gal(b1-3)]GalNAc
# Procedure, shortened: as §1
# [27] = molecular target: Neu5Ac(a2-6)Gal(b1-4)GlcNAc(b1-3)Gal(b1-4)[Fuc(a1-3)]GlcNAc(b1-3)Gal(b1-4)[Fuc(a1-3)]GlcNAc
# Procedure, shortened: as §1
# [28] = molecular target: Neu5Ac(a2-6)Gal(b1-4)GlcNAc(b1-3)GalNAc
# Procedure, shortened: as §1
# [29] = molecular target: Neu5Ac(a2-6)Gal(b1-4)GlcNAc(b1-3)[Neu5Ac(a2-6)Gal(b1-4)GlcNAc(b1-6)]GalNAc
# Procedure, shortened: as §1
# [30] = molecular target: Neu5Ac(a2-6)Gal(b1-4)GlcNAc(b1-6)GalNAc
# Procedure, shortened: as §1
# [31] = molecular target: Neu5Ac(a2-6)Gal(b1-4)GlcNAc(b1-6)[Gal(b1-3)GlcNAc(b1-3)]Gal(b1-4)Glc
# Procedure, shortened: as §1
# [32] = molecular target: Neu5Ac(a2-6)Gal(b1-4)GlcNAc(b1-6)[Gal(b1-3)]GalNAc
# Procedure, shortened: as §1
# [33] = molecular target: Neu5Ac(a2-6)Gal(b1-4)GlcNAc6S
# Procedure, shortened: as §1
# Neu5Ac(a2-6)GalNAc = molecular target: Neu5Ac(a2-6)GalNAc
# Procedure, shortened: as §1
# [34] = molecular target: Neu5Ac(a2-6)GalNAc(b1-4)GlcNAc
# Procedure, shortened: as §1
# [35] = molecular target: Neu5Ac(a2-6)GalNAc(b1-4)GlcNAc6S
# Procedure, shortened: as §1
# [36] = molecular target: Neu5Ac(a2-6)GlcNAc(b1-4)GlcNAc
# Procedure, shortened: as §1
binder,measurement,setting,value
"SspB C123 (Streptococcus gordonii), Q54186 (protein) MAHFHYSSLLAQPQINKEIKNEDGVDIDRTLVAKQSIGKFELKTEALTAGRPKTTSFVLVDPLPTGYKFDLDATKAASTGFDTTYDEASHTVTFKATDETLATYNADLTKPVETLHPTVVGRVLNDGATYTNNFTLTVNDAYGIKSNVVRVTTPGKPNDPDNPNNNYIKPTKVNKNKEGLNIDGKEVLAGSTNYYELTWDLDQYKGDKSSKEAIQNGFYYVDDYPEEALDVRPDLVKVADEKGNQVSGVSVQQYDSLEAAPKKVQDLLKKANITVKGAFQLFSADNPEEFYKQYVSTGTSLVITDPMTVKSEFGKTGGKYENKAYQIDFGNGYATEVVVNNVPKITPKKDVTVSLDPTSENLDGQTVQLYQTFNYRLIGGFIPQNHSEELEDYSFVDDYDQAGDQYTGNYKTFSSLNLTMKDGSVIKAGTDLTSQTTAETDATNGIVTVRFKEDFLQKISLDSPFQAETYLQMRRIAIGTFENTYVNTVNKVAYASAAALEHHHHHH",glycan array binding signal (z-score),[1],-0.04
same,glycan array binding signal (z-score),Neu5Ac(a2-6)Gal(b1-4)Glc,-0.254
same,glycan array binding signal (z-score),[2],-1.08
same,glycan array binding signal (z-score),[3],-0.49
same,glycan array binding signal (z-score),[4],-0.716
same,glycan array binding signal (z-score),[5],-1.21
same,glycan array binding signal (z-score),[6],-1.16
same,glycan array binding signal (z-score),[7],-1.05
same,glycan array binding signal (z-score),[8],-0.28
same,glycan array binding signal (z-score),[9],-0.488
same,glycan array binding signal (z-score),[10],-0.696
same,glycan array binding signal (z-score),[11],1.56
same,glycan array binding signal (z-score),[12],-0.261
same,glycan array binding signal (z-score),[13],0.189
same,glycan array binding signal (z-score),[14],-0.233
same,glycan array binding signal (z-score),[15],0.389
same,glycan array binding signal (z-score),[16],-0.16
same,glycan array binding signal (z-score),[17],0.536
same,glycan array binding signal (z-score),[18],-0.933
same,glycan array binding signal (z-score),[19],-0.017
same,glycan array binding signal (z-score),[20],-1.11
same,glycan array binding signal (z-score),[21],-0.761
same,glycan array binding signal (z-score),[22],-1.16
same,glycan array binding signal (z-score),[23],3.21
same,glycan array binding signal (z-score),[24],0.329
same,glycan array binding signal (z-score),[25],-0.256
same,glycan array binding signal (z-score),[26],0.056
same,glycan array binding signal (z-score),[27],0.632
same,glycan array binding signal (z-score),[28],0.453
same,glycan array binding signal (z-score),[29],-0.829
same,glycan array binding signal (z-score),[30],0.496
same,glycan array binding signal (z-score),[31],-0.297
same,glycan array binding signal (z-score),[32],-0.115
same,glycan array binding signal (z-score),[33],1.02
same,glycan array binding signal (z-score),Neu5Ac(a2-6)GalNAc,-0.217
same,glycan array binding signal (z-score),[34],-0.117
same,glycan array binding signal (z-score),[35],0.167
same,glycan array binding signal (z-score),[36],-1.15

# Fetched one by one from above (two):
binder,measurement,setting,value
"SspB C123 (Streptococcus gordonii), Q54186 (protein) MAHFHYSSLLAQPQINKEIKNEDGVDIDRTLVAKQSIGKFELKTEALTAGRPKTTSFVLVDPLPTGYKFDLDATKAASTGFDTTYDEASHTVTFKATDETLATYNADLTKPVETLHPTVVGRVLNDGATYTNNFTLTVNDAYGIKSNVVRVTTPGKPNDPDNPNNNYIKPTKVNKNKEGLNIDGKEVLAGSTNYYELTWDLDQYKGDKSSKEAIQNGFYYVDDYPEEALDVRPDLVKVADEKGNQVSGVSVQQYDSLEAAPKKVQDLLKKANITVKGAFQLFSADNPEEFYKQYVSTGTSLVITDPMTVKSEFGKTGGKYENKAYQIDFGNGYATEVVVNNVPKITPKKDVTVSLDPTSENLDGQTVQLYQTFNYRLIGGFIPQNHSEELEDYSFVDDYDQAGDQYTGNYKTFSSLNLTMKDGSVIKAGTDLTSQTTAETDATNGIVTVRFKEDFLQKISLDSPFQAETYLQMRRIAIGTFENTYVNTVNKVAYASAAALEHHHHHH",glycan array binding signal (z-score),Neu5Ac(a2-6)GalNAc,-0.217
same,glycan array binding signal (z-score),[22],-1.16
